According to publication PMC7862700:
Only a part is listed here, and it is no random draw. At the low end of the ranking, values are background and their order means little.

target: T1, ELK1 (UniProt P19419); assay: DAPPL (digital affinity profiling via proximity ligation, sequencing); conditions: 10 mM Tris-HCl pH 7.5, 50 mM NaCl, 1 mM DTT, 4% glycerol, room temperature, 30 min; GST-TFs on glutathione beads, 16-mer random dsDNA library, 0.1% …; high values mean tight binding; double strand, one strand shown; scale: fold enrichment (6-mer frequency, TF over GST control)
T1 sequence: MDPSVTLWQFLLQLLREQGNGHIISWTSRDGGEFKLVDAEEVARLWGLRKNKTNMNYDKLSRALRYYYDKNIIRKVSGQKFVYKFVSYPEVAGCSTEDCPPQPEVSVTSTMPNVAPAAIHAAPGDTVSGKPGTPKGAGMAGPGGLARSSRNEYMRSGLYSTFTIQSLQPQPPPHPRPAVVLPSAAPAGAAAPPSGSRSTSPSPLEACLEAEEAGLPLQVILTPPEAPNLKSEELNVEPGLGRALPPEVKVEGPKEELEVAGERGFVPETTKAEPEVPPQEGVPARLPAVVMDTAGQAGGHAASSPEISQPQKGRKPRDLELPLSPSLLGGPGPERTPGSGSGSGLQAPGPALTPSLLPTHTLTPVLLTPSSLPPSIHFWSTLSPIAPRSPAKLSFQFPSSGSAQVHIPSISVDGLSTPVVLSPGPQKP

Sequence | binding signal
TAGTAA | 0.999
GGTCCT | 0.945
TCGCTC | 1.27
CTTCTG | 1.34
CGCTCC | 1.28
CAAAAC | 1.27
TGGTAC | 1.23
ACATCC | 2.73
CGACTT | 1.85
CCTTGG | 1.41
TGCGCG | 1.05
GGTTTT | 0.998
ATCCAA | 1.19
GAAGCA | 1.35
ATGCTT | 1.42
AAATGT | 1.19
CTCCTT | 1.72
GAATCT | 0.995
TAACGA | 1.04
GTTCCA | 0.984

Sequence | binding signal
GGTCTT | 1.11
GTAAAA | 1
CTGGTT | 1.3
CGCTCT | 1.25
CTTGGT | 1.44
TCTCCG | 1.49
ATTTCA | 1.17
CTAAAA | 1.12
ATTCTA | 1.21
TGTTCA | 1.31
CCGCGT | 1.11
TGGTAG | 1.02
TCTGGG | 1.06
TTACCG | 1.16
CCTCTT | 1.45
ATCCCC | 1.46
ATTTTT | 1.14
CCGGTA | 1.51
CTATCT | 1.43
TCCTAT | 1.56

target: T2, ELK3 (UniProt P41970); assay: as above; conditions: 10 mM Tris-HCl pH 7.5, 50 mM NaCl, 1 mM DTT, 4% glycerol, room temperature, 30 min; GST-TFs on glutathione beads, 16-mer random dsDNA library, 0.1% …; high values mean tight binding; double strand, one strand shown; scale: fold enrichment (6-mer frequency, TF over GST control)
T2 sequence: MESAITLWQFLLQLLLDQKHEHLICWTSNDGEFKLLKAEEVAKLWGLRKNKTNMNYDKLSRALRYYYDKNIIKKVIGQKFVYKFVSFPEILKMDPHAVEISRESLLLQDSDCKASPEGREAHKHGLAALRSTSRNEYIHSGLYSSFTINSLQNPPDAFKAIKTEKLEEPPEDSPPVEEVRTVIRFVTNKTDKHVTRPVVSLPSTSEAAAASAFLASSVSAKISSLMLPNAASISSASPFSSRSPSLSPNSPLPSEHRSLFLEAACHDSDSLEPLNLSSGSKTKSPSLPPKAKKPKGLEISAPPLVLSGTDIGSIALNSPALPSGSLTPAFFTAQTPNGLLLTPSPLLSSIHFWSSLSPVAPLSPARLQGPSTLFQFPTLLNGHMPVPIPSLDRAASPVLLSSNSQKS

Sequence | binding signal
GGTCCT | 0.966
CGCTCC | 1.37
ACATCC | 2.98
GGTTTT | 1.04
CCGCGT | 0.955

target: T3, ETS2 (UniProt P15036); assay: as above; conditions: 10 mM Tris-HCl pH 7.5, 50 mM NaCl, 1 mM DTT, 4% glycerol, room temperature, 30 min; GST-TFs on glutathione beads, 16-mer random dsDNA library, 0.1% …; high values mean tight binding; double strand, one strand shown; scale: fold enrichment (6-mer frequency, TF over GST control)
T3 sequence: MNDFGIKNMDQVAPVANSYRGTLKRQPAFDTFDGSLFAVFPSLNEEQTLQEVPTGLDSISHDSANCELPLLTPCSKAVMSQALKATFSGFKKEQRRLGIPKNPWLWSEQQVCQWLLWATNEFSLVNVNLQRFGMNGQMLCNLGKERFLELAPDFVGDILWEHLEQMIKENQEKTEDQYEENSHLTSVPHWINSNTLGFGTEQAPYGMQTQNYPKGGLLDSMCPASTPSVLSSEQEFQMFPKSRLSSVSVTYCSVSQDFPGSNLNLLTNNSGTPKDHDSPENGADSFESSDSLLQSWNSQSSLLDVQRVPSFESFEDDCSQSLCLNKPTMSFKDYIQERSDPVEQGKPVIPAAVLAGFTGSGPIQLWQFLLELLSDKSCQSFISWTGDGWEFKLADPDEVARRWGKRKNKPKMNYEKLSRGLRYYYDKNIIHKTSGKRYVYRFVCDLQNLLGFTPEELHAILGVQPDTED

Sequence | binding signal
TAGTAA | 0.987
GGTCCT | 0.911
TCGCTC | 1.32
CTTCTG | 1.34
CGCTCC | 1.39
CAAAAC | 1.27
TGGTAC | 1.19
ACATCC | 2.68
CGACTT | 1.76
CCTTGG | 1.25
TGCGCG | 0.897
GGTTTT | 1.1
ATCCAA | 1.18
GAAGCA | 1.32
ATGCTT | 1.28
AAATGT | 1.44
CTCCTT | 1.76
GAATCT | 1.08
TAACGA | 1.12
GTTCCA | 1.13

Sequence | binding signal
GGTCTT | 1.23
GTAAAA | 1.13
CTGGTT | 1.29
CGCTCT | 1.31
CTTGGT | 1.45
TCTCCG | 1.62
ATTTCA | 1.22
CTAAAA | 1.21
ATTCTA | 1.3
TGTTCA | 1.2
CCGCGT | 1.13
TGGTAG | 1.04
TCTGGG | 0.985
TTACCG | 1.19
CCTCTT | 1.56
ATCCCC | 1.29
ATTTTT | 1.1
CCGGTA | 1.54
CTATCT | 1.39
TCCTAT | 1.65

target: T4, ETV3 (UniProt P41162-2); assay: as above; conditions: 10 mM Tris-HCl pH 7.5, 50 mM NaCl, 1 mM DTT, 4% glycerol, room temperature, 30 min; GST-TFs on glutathione beads, 16-mer random dsDNA library, 0.1% …; high values mean tight binding; double strand, one strand shown; scale: fold enrichment (6-mer frequency, TF over GST control)
T4 sequence: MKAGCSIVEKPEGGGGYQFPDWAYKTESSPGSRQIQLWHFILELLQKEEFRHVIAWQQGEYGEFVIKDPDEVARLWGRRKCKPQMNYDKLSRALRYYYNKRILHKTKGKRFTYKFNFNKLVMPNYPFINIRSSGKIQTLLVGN

Sequence | binding signal
GGTCCT | 0.965
CAAAAC | 1.18
ACATCC | 2.88
TGCGCG | 1.03
CTCCTT | 1.95
GGTCTT | 1.16
CTGGTT | 1.45
CTTGGT | 1.34
ATTTCA | 1.23
CTAAAA | 1.12
